The text below walks through data of ChEMBL document CHEMBL4303122, “Identification of potential treatments for COVID-19 through artificial intelligence-enabled phenomic analysis of human cells infected with SARS-CoV-2” (2020).

The structures appear in SMILES notation. The full ranking holds about 1,600 compounds; the median of “Hit score” is about 0.13, and the highest 2% start at about 0.46. The list shows a part of the results.

For the test, the system named is SARS-CoV-2. Put plainly: Antiviral activity against SARS-CoV-2 (USA-WA1/2020 strain) measured by imaging in HRCE cells at MOI 0.4 after 96 hrs (reported as hit score from 0-1 for on-disease vs off-disease activity: scores >0.6 considered hits). In kind it is functional, Homo sapiens.
Molecule `N#Cc1c(N2C[C@@H]3NCCO[C@H]3C2)c(F)cc2c(=O)c(C(=O)O)cn(C3CC3)c12` [FINAFLOXACIN] gave a Hit score of 0.04952.
In the case of `O=C(NC(=O)c1c(F)cccc1F)Nc1cc(Cl)c(OC(F)(F)C(F)C(F)(F)F)cc1Cl` (stereo not given) [LUFENURON], the Hit score is listed as 0.138.
In turn, `NC(=O)N1c2ccccc2C=Cc2ccccc21` [CARBAMAZEPINE] returned a Hit score of 0.2353.
The figure for `COC(=O)N[C@H](C(=O)N1CC2(CC2)C[C@H]1c1nc(-c2ccc3c(c2)C(F)(F)c2cc(-c4ccc5[nH]c([C@@H]6[C@H]7CC[C@H](C7)N6C(=O)[C@@H](NC(=O)OC)C(C)C)nc5c4)ccc2-3)c[nH]1)C(C)C` is -0.2222; for `C1=Cc2cccc(OCC3CNCCO3)c2C1.Cl` (stereo not given) [INDELOXAZINE HYDROCHLORIDE] it is -0.04248.
`C[C@H](N/C(=N/C#N)Nc1cccc2ncccc12)c1ccccc1` yielded a Hit score of 0.1517.
`COc1c(O[C@@H]2O[C@H](CO)[C@@H](O)[C@H](O)[C@H]2O)cc2c(c1OC)-c1ccc(SC)c(=O)cc1[C@@H](NC(C)=O)CC2` [THIOCOLCHICOSIDE] came in with a Hit score of 0.1984.
The molecule `CC(C)N(CCNC(=O)CN1CCCC1=O)C(C)C` yielded a Hit score of 0.1027.
Take `CCC(c1ccccc1)c1c(O)c2ccccc2oc1=O` (stereo not given) [PHENPROCOUMON]: the Hit score was determined as 0.1829.
On to `CC(=O)N[C@@H](CC(C)C)C(=O)O`, for which the Hit score came to 0.1332.
`Nc1nc(=O)c2nc(CNc3ccc(C(=O)N[C@@H](CCC(=O)O)C(=O)O)cc3)cnc2[nH]1` [FOLIC ACID] returned a Hit score of 0.1591.
The figure for `CC(C)(C)NC(=O)[C@@H]1C[C@@H]2CCCC[C@@H]2CN1C[C@@H](O)[C@H](Cc1ccccc1)NC(=O)[C@H](CC(N)=O)NC(=O)c1ccc2ccccc2n1` is 0.2021.
Molecule `C#C[C@]1(OC(=O)CCCCCC)CC[C@H]2[C@@H]3CCC4=CC(=O)CC[C@@H]4[C@H]3CC[C@@]21C` yielded a Hit score of 0.06115.
As to `CN1[C@@H]2CC[C@H]1C[C@@H](OC(=O)c1c[nH]c3ccccc13)C2` [TROPISETRON], the Hit score is on record as 0.2296.
As for `CC(C)NCC(O)COc1ccc(COCCOC(C)C)cc1` (stereo not given) [BISOPROLOL], the Hit score came to 0.1972.
Consider `CN(C)Cc1c(C(=O)NCCOc2ccc(C(=O)NO)cc2)oc2ccccc12` [ABEXINOSTAT], for which the Hit score turned out to be 0.02119.
Molecule `O=C1CN2Cc3c(ccc(Cl)c3Cl)N=C2N1` [ANAGRELIDE] displayed a Hit score of 0.1678.
`Nc1nc(Cl)nc2c1ncn2[C@@H]1O[C@H](CO)[C@@H](O)[C@@H]1F` [CLOFARABINE] came in with a Hit score of -0.04584.
`COc1ccc(-c2cc(=O)c3c(O)cc(O)cc3o2)cc1O` [DIOSMETIN]: the Hit score was determined as 0.3872.
The figure for `CC(C)(C)NCC(O)c1cc(Cl)c(N)c(Cl)c1` (stereo not given) [CLENBUTEROL] is -0.07437.
Molecule `CC1(C)S[C@@H]2[C@H](NC(=O)[C@H](NC(=O)N3CCN(S(C)(=O)=O)C3=O)c3ccccc3)C(=O)N2[C@H]1C(=O)O` [MEZLOCILLIN] had a Hit score of 0.1621.
`OC(CCN1CCCCC1)(c1ccccc1)C1CC2C=CC1C2` (stereo not given) [BIPERIDEN]: the Hit score came to 0.3402.
For `CCN(CC)CC#CCOC(=O)C(O)(c1ccccc1)C1CCCCC1` (stereo not given) [OXYBUTYNIN], the Hit score is 0.1254.
The same measure for `Cc1ncc([N+](=O)[O-])n1CCO` [METRONIDAZOLE]: 0.1151; for `CN(C)CCOC1=Cc2ccccc2Sc2ccc(Cl)cc21` [ZOTEPINE]: -0.05771; for `CC(C)(C)NCC(O)COc1cc(Cl)ccc1Cl` (stereo not given) [CLORANOLOL]: 0.4962.
With `CC(C)N1CCN(c2ccc(OCC3COC(Cn4cncn4)(c4ccc(Cl)cc4Cl)O3)cc2)CC1` (stereo not given) [TERCONAZOLE], the Hit score was determined as 0.03816.
Molecule `CC[C@H]1OC(=O)[C@H](C)C(=O)[C@H](C)[C@@H](O[C@@H]2O[C@H](C)C[C@H](N(C)C)[C@H]2O)[C@](C)(OC)C[C@@H](C)C(=O)[C@H](C)[C@H]2N(CCCCn3cnc(-c4cccnc4)c3)C(=O)O[C@]12C` [TELITHROMYCIN] yielded a Hit score of 0.2926.
For `CN1C[C@H](C(=O)N[C@]2(C)O[C@@]3(O)[C@@H]4CCCN4C(=O)[C@H](Cc4ccccc4)N3C2=O)C[C@@H]2c3cccc4[nH]cc(c34)C[C@H]21` [DIHYDROERGOTAMINE], the Hit score is given as -0.0003044.
Molecule `COc1ccc2[nH]cc(CCNC(C)=O)c2c1` [MELATONIN] registered a Hit score of 0.1403.
`O=C([O-])c1ccccc1O.[Na+]` [SODIUM SALICYLATE] came in with a Hit score of 0.1888.
Consider `Cc1ccc(C(=O)c2cc(O)c(O)c([N+](=O)[O-])c2)cc1` [TOLCAPONE], for which the Hit score is given as 0.0005284.
The same measure for `CCCC(CCC)C(=O)O[C@H]1C[C@H]2CC[C@@H](C1)[N+]2(C)C.[Br-]` [ANISOTROPINE METHYLBROMIDE]: 0.2494; for `COc1ccc(C(=O)NCc2cccnc2)cc1C(=O)NCc1cccnc1` [PICOTAMIDE]: 0.2287; for `CC(=O)N[C@@H](CC(=O)N[C@@H](CCC(=O)O)C(=O)O)C(=O)O` [SPAGLUMIC ACID]: 0.2385.
The molecule `Cc1ccc(S(=O)(=O)NC(=O)NN2CC3CCCC3C2)cc1` (stereo not given) [GLICLAZIDE] came in with a Hit score of 0.08068.
With `CCC(C)C(C(=O)OCC[N+](C)(CC)CC)c1ccccc1` (stereo not given) [VALETHAMATE], the Hit score is recorded as 0.1761.
The molecule `C=C1CC[C@H](O)C/C1=C/C=C1\CCC[C@]2(C)[C@@H]([C@H](C)CCCC(C)C)CC[C@@H]12` [CHOLECALCIFEROL] came in with a Hit score of 0.2186.
The molecule `COc1nc(C)nc(Cl)c1NC1=NCCN1` [MOXONIDINE] came in with a Hit score of 0.157.
The same measure for `CC(C)OC(=O)CCC/C=C\C[C@@H]1[C@@H](/C=C/C(F)(F)COc2ccccc2)[C@H](O)C[C@@H]1O` [TAFLUPROST]: 0.14; for `CCn1cc(C(=O)O)c(=O)c2cnc(N3CCNCC3)nc21` [PIPEMIDIC ACID]: 0.2033.
Molecule `COc1cc2nc(N3CCN(C(=O)c4ccco4)CC3)nc(N)c2cc1OC` [PRAZOSIN] came in with a Hit score of 0.07667.
As for `NCCS(=O)(=O)O` [TAURINE], the Hit score was 0.2637.
For `Oc1c(I)cc(I)c2cccnc12` [IODOQUINOL], the Hit score is on record as 0.1688.
Regarding `O=C(CCCN1CC=C(n2c(=O)[nH]c3ccccc32)CC1)c1ccc(F)cc1` [DROPERIDOL], the Hit score turned out to be 0.1717.
In the case of `CCN(CC)CCNC(=O)c1cc(S(C)(=O)=O)ccc1OC` [TIAPRIDE], the Hit score is 0.1795.
`CCn1cc(C(=O)O)c(=O)c2ccc(C)nc21` [NALIDIXIC ACID]: the Hit score stood at 0.03233.
In turn, `CCCCCC(C)N` (stereo not given) [TUAMINOHEPTANE] gave a Hit score of 0.3062.
The molecule `COc1ccc2cc(CCC(C)=O)ccc2c1` [NABUMETONE] had a Hit score of 0.01673.
The figure for `C#CCN(C)Cc1ccccc1` [PARGYLINE] is 0.1862.
`Oc1cc(Cl)ccc1Oc1ccc(Cl)cc1Cl` [TRICLOSAN] displayed a Hit score of 0.1243.
On to `CN(C)CCc1c[nH]c2ccc(Cn3cncn3)cc12` [RIZATRIPTAN], for which the Hit score is 0.02516.
Molecule `OCCN1CCN(CCCN2c3ccccc3Sc3ccc(Cl)cc32)CC1` [PERPHENAZINE] had a Hit score of 0.1094.
Consider `Nc1ccc(S(=O)(=O)c2ccc(N)cc2)cc1` [DAPSONE], for which the Hit score is recorded as 0.2677.
The molecule `Nc1ccc(C(=O)NCC(=O)O)cc1` [AMINOHIPPURIC ACID] yielded a Hit score of 0.08913.
The molecule `CCCCC(=O)O[C@]1(C(=O)CO)[C@@H](C)C[C@H]2[C@@H]3CCC4=CC(=O)C=C[C@]4(C)[C@@]3(F)[C@@H](O)C[C@@]21C` [BETAMETHASONE VALERATE] registered a Hit score of -0.1439.
Molecule `N=C(N)NCC1COC2(CCCCC2)O1` (stereo not given) displayed a Hit score of 0.1079.
As for `Cc1ncc(CSSCc2cnc(C)c(O)c2CO)c(CO)c1O` [PYRITINOL], the Hit score is 0.2567.
The figure for `CC[C@@H](CO)NC(=O)[C@@H]1C=C2c3cccc4[nH]cc(c34)C[C@H]2N(C)C1` [METHYLERGONOVINE] is 0.219; for `CC(=O)Oc1cccc2c1C(=O)c1c(OC(C)=O)cc(C(=O)O)cc1C2=O` [DIACEREIN] it is 0.1572.
For the molecule `CCCCC(C)(O)C/C=C/[C@H]1[C@H](O)CC(=O)[C@@H]1CCCCCCC(=O)OC` (stereo not given in full) [MISOPROSTOL], the Hit score is given as -0.07952.
The figure for `CC1(C)[C@@H](O)CC[C@]2(C)[C@H]3C(=O)C=C4[C@@H]5C[C@@](C)(C(=O)O)CC[C@]5(C)CC[C@@]4(C)[C@]3(C)CC[C@@H]12` [ENOXOLONE] is 0.1505; for `N[C@H]1C(O)O[C@H](CO)[C@@H](O)[C@@H]1O` (stereo not given in full) [GLUCOSAMINE] it is 0.1709; for `C/C(=C\c1csc(C)n1)[C@@H]1C[C@@H]2O[C@]2(C)CCC[C@H](C)[C@H](O)[C@@H](C)C(=O)C(C)(C)[C@@H](O)CC(=O)N1` [IXABEPILONE] it is 0.1281.
The figure for `CN1CCCC(n2nc(Cc3ccc(Cl)cc3)c3ccccc3c2=O)CC1` (stereo not given) [AZELASTINE] is 0.009467; for `CN(C)CCC[C@@]1(c2ccc(F)cc2)OCc2cc(C#N)ccc21` [ESCITALOPRAM] it is -0.002404; for `O=C(O[C@H]1CN2CCC1CC2)N1CCc2ccccc2[C@@H]1c1ccccc1` [SOLIFENACIN] it is 0.03148.
`NC(=O)N/N=C/c1ccc([N+](=O)[O-])o1` [NITROFURAZONE] came in with a Hit score of 0.1562.
The figure for `CC(C)C[C@H](NC(=O)[C@H](CCc1ccccc1)NC(=O)CN1CCOCC1)C(=O)N[C@@H](Cc1ccccc1)C(=O)N[C@@H](CC(C)C)C(=O)[C@@]1(C)CO1` [CARFILZOMIB] is -0.2765.
On to `CN1CCCCC1CCN1c2ccccc2Sc2ccc([S+](C)[O-])cc21` (stereo not given) [MESORIDAZINE], for which the Hit score is reported as 0.07548.
